The source of these data is PMC6368322.

Results are given in words; binding and its absence hold for the method and conditions named. In cells and extracts the contact can be indirect. Some results given as binding are weak or reduced against the parent protein; the word gives no strength. Tags and fused reporters may be left off the sequences shown.

Assay [1] addresses T1, AtCSN4-GFP (Arabidopsis thaliana) (UniProt Q8L5U0).
T1 sequence: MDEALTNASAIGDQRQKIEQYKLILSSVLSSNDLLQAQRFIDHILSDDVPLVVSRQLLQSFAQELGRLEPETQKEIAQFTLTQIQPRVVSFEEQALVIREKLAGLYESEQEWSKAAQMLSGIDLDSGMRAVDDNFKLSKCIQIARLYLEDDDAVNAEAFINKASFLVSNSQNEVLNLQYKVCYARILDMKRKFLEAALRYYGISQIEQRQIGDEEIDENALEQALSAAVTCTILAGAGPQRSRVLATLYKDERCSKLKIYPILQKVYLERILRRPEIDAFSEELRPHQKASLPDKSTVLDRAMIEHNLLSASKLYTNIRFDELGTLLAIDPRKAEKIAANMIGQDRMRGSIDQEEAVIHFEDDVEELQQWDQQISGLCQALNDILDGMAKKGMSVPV
Briefly: co-IP; anti-GFP antibody coupled to magnetic uMACS microbeads, 1 hour at 4°C, Miltenyi lysis buffer with protease inhibitors; extracts of Arabidopsis seedlings, mature green seeds or inflorescences; Western blot of eluates. For orientation: A western blot detects proteins with antibodies after separation by electrophoresis.

In assay [2] the target is T2, AtTCTP fused with N- or C-terminal YFP moiety (BiFC) (Arabidopsis thaliana) (UniProt P31265).
T2 sequence: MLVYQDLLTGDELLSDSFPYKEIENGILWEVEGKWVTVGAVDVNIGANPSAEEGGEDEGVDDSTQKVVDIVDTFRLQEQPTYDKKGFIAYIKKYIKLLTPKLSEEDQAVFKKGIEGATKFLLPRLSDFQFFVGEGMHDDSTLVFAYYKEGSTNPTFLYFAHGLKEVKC
Kind of assay: split reporter; BiFC with split YFP moieties, co-expression in Nicotiana benthamiana leaf epidermal cells, observed four days post-infiltration by confocal microscopy.

For assay [3], the target named is T3, AtTCTP-GFP (line AtTCTPg-GFP, own promoter) (Arabidopsis thaliana) (UniProt P31265).
T3 sequence: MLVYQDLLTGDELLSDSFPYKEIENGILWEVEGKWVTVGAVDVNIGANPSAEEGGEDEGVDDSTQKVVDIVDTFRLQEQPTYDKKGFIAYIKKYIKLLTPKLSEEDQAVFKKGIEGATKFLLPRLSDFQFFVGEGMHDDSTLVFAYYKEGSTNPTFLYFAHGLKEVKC
Briefly: co-IP; anti-GFP antibody coupled to magnetic uMACS microbeads, 1 hour at 4°C, Miltenyi lysis buffer with protease inhibitors; extracts of Arabidopsis seedlings, mature green seeds or inflorescences; Western blot of eluates.

Assay [4] addresses AtCSN4 fused with N- or C-terminal YFP moiety (BiFC) (Arabidopsis thaliana) (UniProt Q8L5U0). Kind of assay: split reporter; BiFC with split YFP moieties, co-expression in Nicotiana benthamiana leaf epidermal cells, observed four days post-infiltration by confocal microscopy.
For assay [5], the target named is T4, AtTCTP-GFP (line 35S::AtTCTP-GFP) (Arabidopsis thaliana) (UniProt P31265).
T4 sequence: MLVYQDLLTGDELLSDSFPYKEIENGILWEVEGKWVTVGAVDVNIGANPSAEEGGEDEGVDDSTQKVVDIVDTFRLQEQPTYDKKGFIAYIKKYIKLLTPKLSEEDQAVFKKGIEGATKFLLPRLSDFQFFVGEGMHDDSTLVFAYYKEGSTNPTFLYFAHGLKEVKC
Kind of assay: co-IP; anti-GFP antibody coupled to magnetic uMACS microbeads, 1 hour at 4°C, Miltenyi lysis buffer with protease inhibitors; extracts of Arabidopsis seedlings, mature green seeds or inflorescences; Western blot of eluates.

In assay [6] the target is T5, dTCTP-GFP (Drosophila TCTP fused to GFP) (Drosophila) (UniProt Q9VGS2).
T5 sequence: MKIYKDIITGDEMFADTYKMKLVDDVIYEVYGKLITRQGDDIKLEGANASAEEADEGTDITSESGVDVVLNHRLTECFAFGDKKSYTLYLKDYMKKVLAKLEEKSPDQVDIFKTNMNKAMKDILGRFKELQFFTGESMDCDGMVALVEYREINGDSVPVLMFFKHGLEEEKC
The assay is described as above.

B1: AtTCTP (untagged) (protein, UniProt P31265 1-168)
chain: MLVYQDLLTGDELLSDSFPYKEIENGILWEVEGKWVTVGAVDVNIGANPSAEEGGEDEGVDDSTQKVVDIVDTFRLQEQPTYDKKGFIAYIKKYIKLLTPKLSEEDQAVFKKGIEGATKFLLPRLSDFQFFVGEGMHDDSTLVFAYYKEGSTNPTFLYFAHGLKEVKC
For B1, in assay [1], the binding result is listed as “binds”.

B2: AtTCTP fused with N- or C-terminal YFP moiety (BiFC) (protein, UniProt P31265 1-168)
chain: MLVYQDLLTGDELLSDSFPYKEIENGILWEVEGKWVTVGAVDVNIGANPSAEEGGEDEGVDDSTQKVVDIVDTFRLQEQPTYDKKGFIAYIKKYIKLLTPKLSEEDQAVFKKGIEGATKFLLPRLSDFQFFVGEGMHDDSTLVFAYYKEGSTNPTFLYFAHGLKEVKC
Turning to B2, the binding result in assay [2] is “binds”.

B3: AtCSN4-Flag (protein, UniProt Q8L5U0 1-397)
chain: MDEALTNASAIGDQRQKIEQYKLILSSVLSSNDLLQAQRFIDHILSDDVPLVVSRQLLQSFAQELGRLEPETQKEIAQFTLTQIQPRVVSFEEQALVIREKLAGLYESEQEWSKAAQMLSGIDLDSGMRAVDDNFKLSKCIQIARLYLEDDDAVNAEAFINKASFLVSNSQNEVLNLQYKVCYARILDMKRKFLEAALRYYGISQIEQRQIGDEEIDENALEQALSAAVTCTILAGAGPQRSRVLATLYKDERCSKLKIYPILQKVYLERILRRPEIDAFSEELRPHQKASLPDKSTVLDRAMIEHNLLSASKLYTNIRFDELGTLLAIDPRKAEKIAANMIGQDRMRGSIDQEEAVIHFEDDVEELQQWDQQISGLCQALNDILDGMAKKGMSVPV
Turning to B3, the binding entry in assay [3] is “binds”.

B4: AtCSN4 fused with N- or C-terminal YFP moiety (BiFC) (protein, UniProt Q8L5U0 1-397)
chain: MDEALTNASAIGDQRQKIEQYKLILSSVLSSNDLLQAQRFIDHILSDDVPLVVSRQLLQSFAQELGRLEPETQKEIAQFTLTQIQPRVVSFEEQALVIREKLAGLYESEQEWSKAAQMLSGIDLDSGMRAVDDNFKLSKCIQIARLYLEDDDAVNAEAFINKASFLVSNSQNEVLNLQYKVCYARILDMKRKFLEAALRYYGISQIEQRQIGDEEIDENALEQALSAAVTCTILAGAGPQRSRVLATLYKDERCSKLKIYPILQKVYLERILRRPEIDAFSEELRPHQKASLPDKSTVLDRAMIEHNLLSASKLYTNIRFDELGTLLAIDPRKAEKIAANMIGQDRMRGSIDQEEAVIHFEDDVEELQQWDQQISGLCQALNDILDGMAKKGMSVPV
In the case of B4, the binding result in assay [4] and in assay [2] was “binds” in each case.

B5: AtCSN4 (endogenous), subunit 4 of the COP9 Signalosome (protein, UniProt Q8L5U0 1-397)
chain: MDEALTNASAIGDQRQKIEQYKLILSSVLSSNDLLQAQRFIDHILSDDVPLVVSRQLLQSFAQELGRLEPETQKEIAQFTLTQIQPRVVSFEEQALVIREKLAGLYESEQEWSKAAQMLSGIDLDSGMRAVDDNFKLSKCIQIARLYLEDDDAVNAEAFINKASFLVSNSQNEVLNLQYKVCYARILDMKRKFLEAALRYYGISQIEQRQIGDEEIDENALEQALSAAVTCTILAGAGPQRSRVLATLYKDERCSKLKIYPILQKVYLERILRRPEIDAFSEELRPHQKASLPDKSTVLDRAMIEHNLLSASKLYTNIRFDELGTLLAIDPRKAEKIAANMIGQDRMRGSIDQEEAVIHFEDDVEELQQWDQQISGLCQALNDILDGMAKKGMSVPV
In the case of B5, the binding entry in assay [5], in assay [3] and in assay [6] was “binds” each time.
